# Results taken from the supplement of paper PMC5949888.
# Most values lie at the floor of the assay. Slopes are relative: functional sequences can read slightly below zero.
# Tested on: Saccharomyces cerevisiae PS128 hsf1 delta, HSF1(1-493) fusion
# Experiment: growth estimate (transactivation domain function in HSF1 fusion, heat-shock survival) (a.u. (slope of normalised read count over time)); higher = stronger growth at 37°C, i.e. more transactivation activity
# Conditions: library: random library
row,Substance,growth estimate
1,TGRGI,< -0.25
2,EGRSFHYRRRWRRYLGAT,< -0.25
3,VMPADKLPGRHFQSWHFNPA,-0.246
4,FRITVRK,< -0.25
5,LNPVPE,< -0.25
6,HDI,< -0.25
7,IWPEDRYVSGVYIAPTTLVR,< -0.25
8,IYEP,< -0.25
9,QGTGSHLGLFRLVLKAVGLE,< -0.25
10,RLIPCKFVFSCQLSKEGGHG,< -0.25
11,LCTHG,< -0.25
12,VWKNRGVFVAEQLAKSEQAV,< -0.25
13,TRGILLAIQFGTWYRSQVSA,< -0.25
14,RRRGHYIEYACRGKRRIATA,< -0.25
15,FGWSKRLWILSTMRLMTQGD,< -0.25
16,VNRNEWLCEVDGQPVGWWTD,< -0.25
17,MMSAHH,< -0.25
18,MPSGMCWSL,< -0.25
19,VGYKIYVMMRSDWW,< -0.25
20,FGRGHCGL,< -0.25
21,SVMQLHRAGLPLRNTNGSRW,< -0.25
22,TVVYLKYVTHQNLIHPVRGR,< -0.25
23,SVIIIPSCHIFRAAYRSSRQ,< -0.25
24,VFT,< -0.25
25,QDLEYH,-0.138

row,Substance,growth estimate
1,KARIRGGDSGRREHARESGR,-0.219
2,DGGDRCLVRRQLSFLMLGVQ,< -0.25
3,LWGQSRVITPYLCHGVADRR,< -0.25
4,AASVIGSFGSL,< -0.25
5,VVRGDLLPMLRLKVTAPRWR,< -0.25
6,ITSPHRHDNTTF,< -0.25
7,VPTPGKSLWHESALELDPGC,-0.237
8,AAESRPPLCSEVDVGLTVRS,< -0.25
9,SCV,< -0.25
10,LPDSEISRRRRVMPLAGVFR,< -0.25
11,HTWFSGLLLWHAMFRSLRPT,< -0.25
12,MILSCR,< -0.25
13,LRSQCVVKSWERNQGPQHGA,< -0.25
14,GSDSADFETAQKGRMQTSGY,< -0.25
15,PPLCNNRG,< -0.25
16,VVEPCKRPARSR,< -0.25
17,SVFTTGLRID,< -0.25
18,SVREAEYISGGGD,< -0.25
19,MIAAAQWVVVVTGFVGIGT,< -0.25
20,PGWTGTRGWRVS,< -0.25
21,IQFDEILVVSILSVGSADVE,< -0.25
22,YPWQAILNILCIGCILWPSN,< -0.25
23,YRKLCTDKFLAIWETSTSAV,< -0.25
24,KEDQLMKNSVSKRVRTLVKH,-0.246
25,LYTYGGPYTGSCGSLRERNG,< -0.25

row,Substance,growth estimate
1,VVTRGGLLSWKHSRPHNEIA,< -0.25
2,HRAKLQGGRHLRPECFTDLG,< -0.25
3,MYESERAWRLRMAVNPRPS,< -0.25
4,WINHDLRS,< -0.25
5,DLDFREIVTCRLVIGSVSDD,< -0.25
6,SWQGLQGGERIMSLKSATKT,< -0.25
7,DGAGK,< -0.25
8,NRRWSILWDARVDVGTTI,< -0.25
9,PRRGTHLSDRDEGRLWIVLS,< -0.25
10,RSGRGKKRTISKQGFNRLEG,< -0.25
11,PGETGSGCSSFRERGSWDSG,< -0.25
12,RWEA,< -0.25
13,RWRNYYEGSTKHPVNFPDGI,< -0.25
14,PCSILRYINSRRAAGSWRSN,< -0.25
15,KKQPVDWGQLRVSTHIL,< -0.25
16,CIQIEPSCS,< -0.25
17,RGRGTSLCQDRELFPRKFLG,< -0.25
18,YNGLQRGFRRGPTLTTSSL,< -0.25
19,RGGQRAVMYRCSSVVAADQI,-0.246
20,TIMWRYIMHTM,< -0.25
21,FGNGPC,< -0.25
22,GVLRACLRKYGVPRGPWSTS,< -0.25
23,RYITRSI,< -0.25
24,NIRQALGWGETTGGSKE,< -0.25
25,VPLSMPRER,< -0.25

# As entered above:
# SWQGLQGGERIMSLKSATKT | growth estimate: < -0.25
# LYTYGGPYTGSCGSLRERNG | growth estimate: < -0.25

# Looked up one by one from above, 2 records:
row,Substance,growth estimate
19,MIAAAQWVVVVTGFVGIGT,< -0.25
5,VVRGDLLPMLRLKVTAPRWR,< -0.25

# Following part

row,Substance,growth estimate
1,RRTISNKAWFLGSRVHLGRP,< -0.25
2,LLGDRCNTPGVVCGNRGLHA,< -0.25
3,FISWG,< -0.25
4,TRPNPMARESCPHAYRLTLK,< -0.25
5,PMNLNMVDCRMRPGSPGVCK,< -0.25
6,VSTVNLRL,< -0.25
7,PVVL,< -0.25
8,SGRCNMWDRGTDSPRGVVVI,< -0.25
9,YLRVVEPNCNRTRRNEVFEN,< -0.25
10,NWFEPR,< -0.25
11,QWRNGDSAAQEPWRHWRVGS,< -0.25
12,SQCSRCHRVLVSESALHRAC,< -0.25
13,VTATCHLSRSK,< -0.25
14,GCMSGVTMFLSRFGSCQQLS,< -0.25
15,YLVNGGLSWSAVIDMKTSRS,-0.222
16,LVKRGESKHT,< -0.25
17,SFRHG,< -0.25
18,NKVVNTQNYYTAQ,< -0.25
19,AVALAAHECLSQFRKVIKST,< -0.25
20,EDIVNGICREYG,< -0.25
21,TDHLRALATLNECFMR,< -0.25
22,GSFGTFDLRLQRGRQVNLLI,< -0.25
23,TEEGSLQCDGT,< -0.25
24,LHSRHPRHSTI,< -0.25
